Results are given in words; binding and its absence hold for the method and conditions named. Some binding calls cover weakened binding; strength is not graded here.
T1: human Mp1 (human, UniProt P40238 26-491, limits assumed)
T1 construct: The analyses of section 1.6 used shMp1-FLAG and hMp1-Fc in ELISA, and CHO-human Mp1 and BaF3-human Mp1 cells; also called human Mpl; TPO receptor
T1 sequence (looked up): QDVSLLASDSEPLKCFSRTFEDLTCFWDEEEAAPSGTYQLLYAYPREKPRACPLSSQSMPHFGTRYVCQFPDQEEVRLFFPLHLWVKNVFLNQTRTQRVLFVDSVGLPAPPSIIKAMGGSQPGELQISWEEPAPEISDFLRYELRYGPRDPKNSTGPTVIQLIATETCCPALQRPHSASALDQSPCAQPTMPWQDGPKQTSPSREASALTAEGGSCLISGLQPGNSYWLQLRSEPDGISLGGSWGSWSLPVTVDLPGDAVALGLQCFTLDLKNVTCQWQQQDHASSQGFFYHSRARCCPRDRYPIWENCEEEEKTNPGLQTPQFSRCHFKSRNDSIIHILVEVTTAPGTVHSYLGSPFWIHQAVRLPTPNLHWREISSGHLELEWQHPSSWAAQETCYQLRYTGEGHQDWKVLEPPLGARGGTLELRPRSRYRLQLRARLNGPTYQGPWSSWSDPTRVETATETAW


The binders below were run against T1, human Mp1 (assay: hybridoma supernatants; ELISA on shMp1-FLAG and hMp1-Fc, flow cytometry on CHO-human Mp1 cells, BaF3-human Mp1 proliferation).
Description: MRL/MpJUmmCrj-lpr/lpr mice (hereinafter abbreviated as “MRL/lpr mice”; purchased from Charles River, Japan) were immunized; the primary immunization was carried out at eight weeks of age. For every single mouse, an emulsion containing 100 μg of shMPL-FLAG combined with Freud's complete adjuvant (H37 Ra; Beckton Dickinson), was administered subcutaneously as the primary injection. As a booster injection, an emulsion containing shMPL-FLAG (50 μg per mouse) combined with Freud's incomplete adjuvant (Beckton Dickinson) was administered subcutaneously. Three mice which have been immunized six times in total were subjected to a final injection of shMPL-FLAG (50 μg per mouse) through the caudal vein. Cell fusion was achieved by mixing the mouse myeloma P3-X63Ag8U1 cells (P3U1; purchased from ATCC) and mouse splenocytes using polyethylene glycol 1500 (Roche Diagnostics). Hybridoma selection in HAT medium began the following day and culture supernatants were obtained. Screening was carried out by ELISA using immunoplates with immobilized shMp1-FLAG or hMp1-Fc, and by a cell proliferation assay of BaF3-hMp1. Positive clones were isolated as single clones by limiting dilution and then cultured on a large scale. The culture supernatants were collected. Anti-human Mp1 antibody-producing hybridomas, VB22B, VB16, VB140, and VB45B, were obtained by this method.

Binder | binding
anti-human Mp1 antibody VB16 (antibody, V domains shown) VH: QVQLQQPGTELVRPGASVKLSCKASGYTFTDYWVNWVKQRPGRGLEWIGRIHPYDSETHYNQKFKNKATLTVDKSSSTAYIQLSSLTSEDSAVYYCASGGWFASWGQGTLVTVSA VL: DIVMTQAAPSVPVTPGESVSISCRSSKSLLYSNGNTYLYWFLQRPGQSPQLLIYRMSNLASGVPDRFSGSGSGTAFTLTISSVEAEDVGVYYCMQHLEYPYTFGSGTKLEIK | binds
anti-human Mp1 antibody TA136 (antibody, V domains shown) VH: DVQLQESGPGLVKPSQSLSLTCTVTGYSITSDYAWSWIRQLPGNKLEWMGYITYSGYSIYNPSLKSRISISRDTSKNQLFLQLNSVTTEDTATYYCVGGYDNMDYWGQGTSVTVSS VL: QIVLTQSPAIMSASPGEKVTLTCSASSSVSSSHLYWYQQKPGSSPKLWIYSTSNLASGVPARFSGSGSGTSYSLTISNMETEDAASYFCHQWSSYPWTFGGGTKLEIK | binds

Further lines, results first:

binding | Binder
binds | anti-human Mp1 antibody VB140 (antibody, V domains shown) VH: QVQLQQSGPELVKPGASVKISCRAFGYAFSNSWMNWVKQRPGKGLEWIGRIYPGDGETNNNGKFKGKATLTADKSSSTAYMQLSSLTSEDSAVYFCARGYGDYSFAYWGQGTLVTVSA VL: DIVMTQAAPSVPVTPGESVSISCRSSKSLLHSNGNTYLYWFLQRPGQSPQLLIYRMSNLASGVPDRFSGSGSGAAFTLRISRVEAEDVGVYYCMQHLEYPYTFGSGTKLEIK
binds | anti-human Mp1 antibody VB45B (antibody, V domains shown) VH: QVQLQQSGPELVKPGASVKISCKASGYAFSSSWMNWVKQRPGKGLEWIGRIYPGDGETNNNGKFKGKATLTADKSSTTAYMQLSSLTSEDSAVYFCARGYGDYSFAYWGQGTLVTVSA VL: DIVMTQAAPSVPVTPGESVSISCRSSKSLLHSNGNTYLYWFLQRPGQSPQLLIYRMSNLASGVPDRFSGSGSGAAFTLRISRVEAEDVGVYYCMQHLEYPYTFGSGTKLEIK

— patent publication US20080009038A1 (Chugai, published 2008)
